These are yes or no findings as the source states them, for the method shown. In cells and extracts the contact can be indirect. Some results given as binding are weak or reduced against the parent protein; the word gives no strength.

This assay has as its target T1, Endogenous SIRT1 (mouse (endogenous in MCF)) (UniProt Q923E4).
T1 sequence: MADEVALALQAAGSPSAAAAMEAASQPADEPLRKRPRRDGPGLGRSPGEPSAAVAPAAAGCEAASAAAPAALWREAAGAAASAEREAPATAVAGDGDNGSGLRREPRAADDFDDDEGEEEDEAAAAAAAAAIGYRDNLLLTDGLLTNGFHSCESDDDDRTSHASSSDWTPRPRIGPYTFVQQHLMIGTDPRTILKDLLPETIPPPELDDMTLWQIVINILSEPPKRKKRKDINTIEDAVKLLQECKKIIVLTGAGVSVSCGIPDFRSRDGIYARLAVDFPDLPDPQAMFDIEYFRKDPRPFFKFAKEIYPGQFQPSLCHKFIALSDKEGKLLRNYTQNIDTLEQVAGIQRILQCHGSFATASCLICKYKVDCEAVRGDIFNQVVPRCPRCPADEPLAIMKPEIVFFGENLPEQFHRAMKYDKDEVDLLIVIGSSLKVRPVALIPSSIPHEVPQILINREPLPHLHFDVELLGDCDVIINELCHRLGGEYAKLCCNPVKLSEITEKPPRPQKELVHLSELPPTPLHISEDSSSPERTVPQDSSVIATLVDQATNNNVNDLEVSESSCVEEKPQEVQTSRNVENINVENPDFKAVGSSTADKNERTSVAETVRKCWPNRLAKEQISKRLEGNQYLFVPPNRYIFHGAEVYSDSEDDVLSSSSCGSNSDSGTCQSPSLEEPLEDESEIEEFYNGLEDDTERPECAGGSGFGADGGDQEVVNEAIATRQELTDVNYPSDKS
The assay can be described thus: co-IP.

B1: Endogenous TRPC3 (protein, UniProt Q9QZC1 1-910)
chain: MSTKVKKCREPARVTLPAPEEEEDGEAEGGESQRRRRGWRGVNGGLEPPCPRAPPSPGPDASSEGSPSRWRTAGMRDKGRRQAVRGPAFMFGARGPSLTAEEERFLDAAEYGNIPVVRKMLEESRTLNVNCVDYMGQNALQLAVGNEHLEVTELLLKKENLARIGDALLLAISKGYVRIVEAILGHPGFAASRRLTLSPCEQELRDDDFYAYDEDGTRFSPDITPIILAAHCHKYEVVHLLLLKGARIERPHDYFCRCSDCAEKQRLDAFSHSRSRINAYKGLASPAYLSLSSEDPVLTALELSNELAKLANIEKEFKNDYRKLSMQCKDFVVGVLDLCRDSEEVEAILNGDLESAEPLERHGHKASLSRVKLAIKYEVKKFVAHPNCQQQLLTIWYENLSGLREQTIAIKCLVVLVVALGLPFLAIGYWIAPCSRLGKILRSPFMKFVAHAASFIIFLGLLVFNASDRFEGITTLPNITVIDYPKQIFRVKTTQFTWTEMLIMVWVLGMMWSECKELWLEGPREYIVQLWNVLDFGMLSIFIAAFTARFLAFLQATKAQQYVDSHVQESDLSEVTLPPEVQYFTYARDKWLPSDPQIISEGLYAIAVVLSFSRIAYILPANESFGPLQISLGRTVKDIFKFMVLFIMVFLAFMIGMFILYSYYLGAKVNPAFTTVEESFKTLFWSIFGLSEVTSVVLKYDHKFIENIGYVLYGIYNVTMVVVLLNMLIAMINSSYQEIEDDSDVEWKFARSKLWLSYFDDGKTLPPPFSLVPSPKSFVYFIMRITNFSKCRRRRLQKDLELGMGNSKSRLNLFTQSNSRVFESHSFNSILNQPTRYQQIMKRLIKRYVLKAQVDKENDEVNEGELKEIKQDISSLRYELLEDKSQATEELAILIHKLSEKLNPSVLRCE
With B1, the binding entry is “binds”.

Source of the values: doi:10.1101/583740 (bioRxiv, 2019).
